Assay results: PMC6105598, “Targeting protein-protein interactions for therapeutic discovery via FRET-based high-throughput screening in living cells” (Scientific Reports, 2018)

Chains of the proteins cited; added tags and fusions are not shown. Residues count along the entry.
UniProt P04191, 1-994 isoform P04191-2: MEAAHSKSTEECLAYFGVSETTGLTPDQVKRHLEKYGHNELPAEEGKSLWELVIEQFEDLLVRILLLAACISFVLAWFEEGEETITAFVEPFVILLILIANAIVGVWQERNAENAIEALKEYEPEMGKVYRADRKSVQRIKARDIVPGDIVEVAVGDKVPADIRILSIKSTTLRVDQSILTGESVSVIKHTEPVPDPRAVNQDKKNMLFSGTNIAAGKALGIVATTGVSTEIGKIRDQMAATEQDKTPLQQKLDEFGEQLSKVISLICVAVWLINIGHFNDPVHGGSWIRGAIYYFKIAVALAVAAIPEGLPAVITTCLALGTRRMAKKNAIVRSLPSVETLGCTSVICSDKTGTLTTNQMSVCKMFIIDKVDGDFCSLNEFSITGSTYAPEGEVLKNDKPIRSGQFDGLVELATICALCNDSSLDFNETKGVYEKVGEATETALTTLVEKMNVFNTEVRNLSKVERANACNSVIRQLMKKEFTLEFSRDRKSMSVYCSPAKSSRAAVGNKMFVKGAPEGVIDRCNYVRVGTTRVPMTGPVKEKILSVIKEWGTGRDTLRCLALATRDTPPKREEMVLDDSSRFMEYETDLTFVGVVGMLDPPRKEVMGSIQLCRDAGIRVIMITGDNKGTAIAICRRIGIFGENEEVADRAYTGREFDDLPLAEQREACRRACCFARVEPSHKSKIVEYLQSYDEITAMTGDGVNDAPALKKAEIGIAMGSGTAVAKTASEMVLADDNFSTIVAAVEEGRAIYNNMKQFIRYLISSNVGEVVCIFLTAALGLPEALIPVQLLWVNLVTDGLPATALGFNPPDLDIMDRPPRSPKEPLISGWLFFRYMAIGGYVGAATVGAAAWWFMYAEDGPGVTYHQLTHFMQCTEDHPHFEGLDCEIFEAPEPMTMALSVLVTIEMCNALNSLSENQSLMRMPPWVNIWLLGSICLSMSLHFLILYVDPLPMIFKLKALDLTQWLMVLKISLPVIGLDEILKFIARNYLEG
UniProt P11607, 1-997 isoform P11607-2: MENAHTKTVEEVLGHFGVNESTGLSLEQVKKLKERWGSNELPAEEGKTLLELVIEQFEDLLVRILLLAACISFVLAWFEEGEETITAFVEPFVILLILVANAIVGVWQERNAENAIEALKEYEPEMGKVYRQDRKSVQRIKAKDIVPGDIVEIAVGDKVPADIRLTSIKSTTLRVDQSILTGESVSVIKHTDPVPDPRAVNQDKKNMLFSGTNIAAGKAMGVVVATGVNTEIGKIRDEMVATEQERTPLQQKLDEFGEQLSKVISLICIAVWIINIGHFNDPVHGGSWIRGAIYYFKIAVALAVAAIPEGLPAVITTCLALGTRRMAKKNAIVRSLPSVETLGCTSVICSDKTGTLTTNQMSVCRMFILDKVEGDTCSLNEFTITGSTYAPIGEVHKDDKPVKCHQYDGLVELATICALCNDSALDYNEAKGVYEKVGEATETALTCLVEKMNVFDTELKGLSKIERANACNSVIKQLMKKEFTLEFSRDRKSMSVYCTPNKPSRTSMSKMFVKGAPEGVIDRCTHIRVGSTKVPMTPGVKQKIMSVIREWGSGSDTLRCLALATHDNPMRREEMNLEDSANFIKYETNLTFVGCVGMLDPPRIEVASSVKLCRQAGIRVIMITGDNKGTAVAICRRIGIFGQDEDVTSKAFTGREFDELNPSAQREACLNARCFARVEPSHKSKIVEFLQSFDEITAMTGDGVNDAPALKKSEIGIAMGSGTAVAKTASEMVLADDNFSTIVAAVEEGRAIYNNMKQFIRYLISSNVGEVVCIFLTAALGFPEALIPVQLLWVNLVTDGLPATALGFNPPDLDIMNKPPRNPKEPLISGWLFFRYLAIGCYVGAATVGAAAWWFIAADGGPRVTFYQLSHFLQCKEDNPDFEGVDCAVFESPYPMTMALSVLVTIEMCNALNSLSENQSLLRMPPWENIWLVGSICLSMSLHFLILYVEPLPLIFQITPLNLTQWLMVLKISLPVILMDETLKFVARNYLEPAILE
UniProt P16615, 1-997 isoform P16615-2, stated change not applied: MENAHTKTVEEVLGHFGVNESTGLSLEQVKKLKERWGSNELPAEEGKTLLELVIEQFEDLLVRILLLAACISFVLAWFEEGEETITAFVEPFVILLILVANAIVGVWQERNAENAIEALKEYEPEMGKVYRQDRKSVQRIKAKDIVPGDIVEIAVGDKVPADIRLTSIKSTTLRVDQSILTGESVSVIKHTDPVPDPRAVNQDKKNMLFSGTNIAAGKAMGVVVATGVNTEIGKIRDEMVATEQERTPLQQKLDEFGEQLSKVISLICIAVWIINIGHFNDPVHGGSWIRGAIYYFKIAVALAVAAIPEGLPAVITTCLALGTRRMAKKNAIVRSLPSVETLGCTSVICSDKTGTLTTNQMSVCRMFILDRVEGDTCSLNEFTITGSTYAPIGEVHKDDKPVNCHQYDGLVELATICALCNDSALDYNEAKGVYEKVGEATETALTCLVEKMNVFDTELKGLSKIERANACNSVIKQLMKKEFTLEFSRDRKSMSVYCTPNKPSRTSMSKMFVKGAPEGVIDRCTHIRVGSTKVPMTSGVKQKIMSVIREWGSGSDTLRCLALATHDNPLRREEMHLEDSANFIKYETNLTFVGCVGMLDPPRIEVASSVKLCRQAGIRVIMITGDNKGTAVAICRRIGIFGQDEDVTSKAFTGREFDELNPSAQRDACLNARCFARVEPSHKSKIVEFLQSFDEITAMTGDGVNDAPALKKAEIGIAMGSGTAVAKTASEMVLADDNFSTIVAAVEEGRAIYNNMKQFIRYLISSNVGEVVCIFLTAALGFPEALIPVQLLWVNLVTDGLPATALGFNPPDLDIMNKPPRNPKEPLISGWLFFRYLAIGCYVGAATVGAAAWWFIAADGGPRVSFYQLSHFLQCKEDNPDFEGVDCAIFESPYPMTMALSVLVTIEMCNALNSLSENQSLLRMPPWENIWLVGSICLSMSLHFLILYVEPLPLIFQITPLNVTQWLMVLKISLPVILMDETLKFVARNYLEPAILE
UniProt P26678, whole entry C36A/C41F/C46A: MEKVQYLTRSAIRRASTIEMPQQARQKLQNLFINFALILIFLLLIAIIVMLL

Experiments:
[1] = target: T1, skeletal SR (SERCA1a only) (Oryctolagus cuniculus, UniProt P04191); assay: Ca-ATPase activity of skeletal SR (SSR), NADH-linked enzyme-coupled assay; assay type: biochemical, rabbit
T1 construct: Skeletal muscle SR membrane vesicles were isolated from longissimus dorsi obtained from New Zealand white rabbits; from tissue; host or cells: rabbit longissimus dorsi skeletal muscle, SR membrane vesicles
Description: (§1) To further examine the functional effects of Hit compounds, Ca-ATPase assays were performed on both skeletal SR (SERCA1a only) and cardiac SR (SERCA2a + PLB) at a series of Ca concentrations ranging from pCa 5 to 8.
(§2) Skeletal muscle SR membrane vesicles were isolated from longissimus dorsi obtained from New Zealand white rabbits, as previously described. Cardiac SR membrane vesicles were isolated from ventricular myocardium obtained from fresh pig hearts. All experimental protocols were reviewed and approved by University of Minnesota’s Institutional Animal Care and Use Committee, an Association for Assessment and Accreditation of Laboratory Animal Care institution.
An enzyme-coupled, NADH-linked ATPase assay was used to measure SERCA ATPase activity in 96-well microplates. Each well contained 0.8 μg (skeletal) or 2 μg (cardiac) of SR vesicles adjusted for the different SERCA contents of skeletal and cardiac SR, 50 mM MOPS (pH 7.0), 100 mM KCl, 5 mM MgCl2, 1 mM EGTA, 0.2 mM NADH, 1 mM phosphoenol pyruvate, 10 IU/mL of pyruvate kinase, 10 IU/mL of lactate dehydrogenase, 3.5 μg/mL of the Ca ionophore A23187, and CaCl2 added to set free [Ca] to the desired values. The assay was started upon the addition of ATP at a final concentration of 5 mM and read in a SpectraMax Plus microplate spectrophotometer rom Molecular Devices (Sunnyvale, CA).

[2] = target: T2, cardiac SR (SERCA2a + PLB) (Sus scrofa, UniProt P11607); assay: Ca-ATPase activity of cardiac SR (CSR), NADH-linked enzyme-coupled assay; assay type: biochemical, pig
T2 construct: Cardiac SR membrane vesicles were isolated from ventricular myocardium obtained from fresh pig hearts; from tissue; host or cells: pig ventricular myocardium, SR membrane vesicles
Description: as §1, with “To characterize the relationship between the structural readout (FRET) and the functional effects, in vitro Ca-ATPase assays were performed on cardiac SR (which contains both SERCA2a and PLB). […] To” for “To”
as §2
An enzyme-coupled, NADH-linked ATPase assay was used to measure SERCA ATPase activity in 96-well microplates. […] The assay was started upon the addition of ATP at a final concentration of 5 mM and read in a SpectraMax Plus microplate spectrophotometer rom Molecular Devices (Sunnyvale, CA).

[3] = target: SERCA2a-PLB complex (GFP-SERCA2a / RFP-PLB in HEK293 cells) (Homo sapiens, UniProt P16615+P26678, C36A/C41F/C46A); assay: SERCA2a-PLB TR-FRET (fluorescence lifetime) biosensor assay in living cells; assay type: cell-based; parameters: expressed in transfected cells; host or cells: HEK293; settings: for ΔFLT: compound incubation for 20 min, uncertainty (1 S.D.) 11 ps

O=C1NC(=O)c2c1c(-c1ccccc1)cc1[nH]c3ccc(O)cc3c21 [PD-407824]
Vmax @ 30 µM [1]: 1.31 i.u. | ΔVmax @ 30 µM ([1]; SSR, 30 µM compound, relative to DMSO control): -50.0% | Vmax @ 30 µM [2]: 0.32 i.u. | ΔVmax @ 30 µM ([2]; CSR, 30 µM compound, relative to DMSO control): -53.4% | ΔFLT ([3]; final concentration 10 µM): -103 ps | ΔFLT ([3]; final concentration 100 µM): -186 ps | EC50 ([3]; concentration-response 0.01-100 µM compound, live HEK293 cells): 8.5 µM
